# Cell number after 72 h of treatment

Values as published with doi:10.1371/journal.pone.0140310, rounded.

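Human melanoma cell lines in 1,536-well plates were treated with a pair of drugs for 72 h, then fixed, stained and imaged. Values are the number of DAPI-stained nuclei as a percentage of the DMSO control: 100 is no effect, lower means fewer cells. Every drug was used at one fixed concentration, the lower of two screened (a fifth of the higher). These are primary screening values without error estimates.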
This is part of the screen, not chosen by result.
An entry leaves out what has no value listed here.
A dash means that no value is listed here.

All values are for the listed drug together with palbociclib (0.04 µM): CC(=O)c1c(C)c2cnc(Nc3ccc(N4CCNCC4)cn3)nc2n(C2CCCC2)c1=O

Drugs:
GW2580 (1 µM): COc1ccc(COc2ccc(Cc3cnc(N)nc3N)cc2OC)cc1
cediranib (0.4 µM): COc1cc2c(Oc3ccc4[nH]c(C)cc4c3F)ncnc2cc1OCCCN1CCCC1
GW9662 (2 µM): O=C(Nc1ccccc1)c1cc([N+](=O)[O-])ccc1Cl
tamatinib (0.4 µM): COc1cc(Nc2ncc(F)c(Nc3ccc4c(n3)NC(=O)C(C)(C)O4)n2)cc(OC)c1OC
midostaurin (0.08 µM): CO[C@@H]1[C@H](N(C)C(=O)c2ccccc2)C[C@H]2O[C@]1(C)n1c3ccccc3c3c4c(c5c6ccccc6n2c5c31)C(=O)NC4
CHIR-265 (0.08 µM): Cn1c(Nc2ccc(C(F)(F)F)cc2)nc2cc(Oc3ccnc(-c4ncc(C(F)(F)F)[nH]4)c3)ccc21
ABT-263 (0.4 µM): CC1(C)CCC(c2ccc(Cl)cc2)=C(CN2CCN(c3ccc(C(=O)NS(=O)(=O)c4ccc(N[C@H](CCN5CCOCC5)CSc5ccccc5)c(S(=O)(=O)C(F)(F)F)c4)cc3)CC2)C1
SNS-032 (0.01 µM): CC(C)(C)c1cnc(CSc2cnc(NC(=O)C3CCNCC3)s2)o1
ruxolitinib (1 µM): N#CC[C@H](C1CCCC1)n1cc(-c2ncnc3[nH]ccc23)cn1
pioglitazone (2 µM): CCc1ccc(CCOc2ccc(CC3SC(=O)NC3=O)cc2)nc1 (centres unmarked)
PF-04217903 (1 µM): OCCn1cc(-c2cnc3nnn(Cc4ccc5ncccc5c4)c3n2)cn1
vismodegib (1 µM): CS(=O)(=O)c1ccc(C(=O)Nc2ccc(Cl)c(-c3ccccn3)c2)c(Cl)c1
tozasertib (0.006 µM): Cc1cc(Nc2cc(N3CCN(C)CC3)nc(Sc3ccc(NC(=O)C4CC4)cc3)n2)n[nH]1
erlotinib (0.8 µM): C#Cc1cccc(Nc2ncnc3cc(OCCOC)c(OCCOC)cc23)c1
BI-78D3 (0.2 µM): O=c1[nH]nc(Sc2ncc([N+](=O)[O-])s2)n1-c1ccc2c(c1)OCCO2
CX-4945 (0.4 µM): O=C(O)c1ccc2c(c1)nc(Nc1cccc(Cl)c1)c1ccncc12
perifosine (0.4 µM): CCCCCCCCCCCCCCCCCCOP(=O)([O-])OC1CC[N+](C)(C)CC1
IMD-0354 (0.016 µM): O=C(Nc1cc(C(F)(F)F)cc(C(F)(F)F)c1)c1cc(Cl)ccc1O
VX-702 (0.4 µM): NC(=O)c1ccc(N(C(N)=O)c2c(F)cccc2F)nc1-c1ccc(F)cc1F
Src-I1 (2 µM): COc1cc2ncnc(Nc3ccc(Oc4ccccc4)cc3)c2cc1OC
bexarotene (2 µM): C=C(c1ccc(C(=O)O)cc1)c1cc2c(cc1C)C(C)(C)CCC2(C)C
crizotinib (0.2 µM): C[C@@H](Oc1cc(-c2cnn(C3CCNCC3)c2)cnc1N)c1c(Cl)ccc(F)c1Cl
U73122 (0.4 µM): COc1ccc2c(c1)CCC1C2CCC2(C)C(NCCCCCCN3C(=O)C=CC3=O)CCC12 (centres unmarked)
lenalidomide (1 µM): Nc1cccc2c1CN(C1CCC(=O)NC1=O)C2=O (centres unmarked)
cisplatin (1.6 µM): N.N.[Cl][Pt][Cl]
FK866 (0.01 µM): O=C(/C=C/c1cccnc1)NCCCCC1CCN(C(=O)c2ccccc2)CC1
PD173074 (0.1 µM): CCN(CC)CCCCNc1ncc2cc(-c3cc(OC)cc(OC)c3)c(NC(=O)NC(C)(C)C)nc2n1

| Second drug | MEL-HO | COLO 792 | A375 | A101D | LB2518-MEL | C32 |
|---|---|---|---|---|---|---|
| cediranib | 94.2 | 68.3 | 69.9 | 84.0 | 69.6 | 84.2 |
| ruxolitinib | 86.8 | 76.3 | 90.8 | 102 | 103 | 88.3 |
| PF-04217903 | 92.4 | 69.8 | 77.2 | 82.2 | 76.9 | 83.2 |
| GW9662 | 80.5 | 58.3 | - | 72.9 | 57.1 | 71.5 |
| cisplatin | 99.5 | 87.6 | 75.2 | 99.5 | 85.8 | 91.1 |
| lenalidomide | 84.3 | 54.0 | 47.9 | 102 | 81.1 | 83.6 |
| bexarotene | 91.6 | 64.1 | 73.7 | 82.6 | 72.6 | 67.9 |
| FK866 | 38.7 | 44.4 | 59.1 | 79.6 | 73.8 | 91.9 |
| SNS-032 | 88.2 | 85.0 | 72.1 | 76.5 | 69.0 | 69.5 |
| CHIR-265 | 76.7 | 29.0 | 42.9 | 54.8 | 47.9 | 69.7 |
| pioglitazone | 99.2 | 61.5 | - | 74.8 | 95.6 | 76.6 |
| vismodegib | 97.7 | 86.4 | 79.0 | 85.9 | 83.6 | 89.2 |
| Src-I1 | 97.6 | 54.9 | - | 69.0 | 66.4 | 78.4 |
| crizotinib | 96.9 | 69.6 | 62.2 | 68.2 | 101 | 86.7 |
| perifosine | 93.6 | 80.3 | 44.5 | 84.4 | 112 | 97.9 |
| GW2580 | 91.8 | 72.4 | - | 78.5 | - | 83.2 |
| U73122 | 95.1 | 74.9 | - | 93.1 | 94.2 | 80.2 |
| ABT-263 | 72.9 | 41.4 | 39.1 | 50.7 | 75.3 | 56.5 |
| PD173074 | 108 | 66.6 | - | 79.0 | 76.9 | 77.6 |
| IMD-0354 | 74.2 | 62.4 | 58.0 | 76.7 | 69.4 | 59.1 |
| BI-78D3 | 82.7 | 84.1 | 76.0 | 82.5 | 90.2 | 88.5 |
| VX-702 | 88.0 | 68.2 | 77.4 | 78.7 | 73.5 | 91.8 |
| CX-4945 | 68.6 | 66.9 | 70.3 | 69.5 | 76.5 | 76.9 |
| midostaurin | 81.8 | 74.7 | 54.2 | 76.1 | 74.2 | 82.9 |
| tamatinib | 84.9 | 40.6 | 54.7 | 73.9 | - | 74.6 |
| erlotinib | 70.9 | 57.3 | 48.0 | 72.8 | 89.0 | 110 |
| tozasertib | 98.4 | 83.4 | 57.0 | 81.1 | 74.9 | 76.3 |

Some entries from above, unchanged:

{"second drug": "pioglitazone", "MEL-HO": 99.2, "COLO 792": 61.5, "A101D": 74.8, "LB2518-MEL": 95.6, "C32": 76.6}
{"second drug": "Src-I1", "MEL-HO": 97.6, "COLO 792": 54.9, "A101D": 69.0, "LB2518-MEL": 66.4, "C32": 78.4}
{"second drug": "midostaurin", "MEL-HO": 81.8, "COLO 792": 74.7, "A375": 54.2, "A101D": 76.1, "LB2518-MEL": 74.2, "C32": 82.9}